For at least one compound, name, drawing or mass did not settle the structure.
Tested on: mouse brain
Assay: in situ brain perfusion (brain uptake)
Details: [125I]-labeled conjugate, two-fold excess of unconjugated Angiopep-2, FIG. 6

COc1cc([C@@H]2c3cc4c(cc3[C@@H](O[C@@H]3O[C@@H]5CO[C@@H](C)O[C@H]5[C@H](O)[C@H]3OC(=O)CCCC(=O)NCCCC[C@H](NC(=O)CNC(=O)[C@H](CCCNC(=N)N)NC(=O)[C@H](CO)NC(=O)CNC(=O)CNC(=O)[C@H](Cc3ccc(O)cc3)NC(=O)[C@H](Cc3ccccc3)NC(=O)[C@H](Cc3ccccc3)NC(=O)[C@@H](NC(=O)CCCC(=O)O[C@H]3[C@H](O[C@@H]5c6cc7c(cc6[C@@H](c6cc(OC)c(O)c(OC)c6)[C@H]6C(=O)OC[C@@H]65)OCO7)O[C@@H]5CO[C@@H](C)O[C@H]5[C@@H]3O)[C@@H](C)O)C(=O)N[C@@H](CCCNC(=N)N)C(=O)N[C@@H](CC(N)=O)C(=O)N[C@@H](CC(N)=O)C(=O)N[C@@H](Cc3ccccc3)C(=O)N[C@@H](CCCCNC(=O)CCCC(=O)O[C@H]3[C@H](O[C@@H]5c6cc7c(cc6[C@@H](c6cc(OC)c(O)c(OC)c6)[C@H]6C(=O)OC[C@@H]65)OCO7)O[C@@H]5CO[C@@H](C)O[C@H]5[C@@H]3O)C(=O)N[C@H](C(=O)N[C@@H](CCC(=O)O)C(=O)N[C@@H](CCC(=O)O)C(=O)N[C@@H](Cc3ccc(O)cc3)C(=O)O)[C@@H](C)O)[C@H]3COC(=O)[C@H]23)OCO4)cc(OC)c1O [Etop-An2(3:1), ((2″-Glutaryl)-Etop)3-(Angiopep2)]
reduction of parenchyma Vd by co-perfusion with unconjugated Angiopep-2: 27%

— US8828925B2, “Etoposide and doxorubicin conjugates for drug delivery” (Angiochem Inc., priority 2008, dated 2014)
